In doi:10.1101/2025.03.07.642083:
For at least one entry, the source does not settle the construct or the ends of the probe. At least one verdict rests on a figure or table, not on a statement of the authors.

Test system: AsTobZL (ToAureo1 bZIP fused to AsPhot1 linker+LOV2) (Thalassiosira oceanica / Avena sativa (chimera))
Assay: EMSA
Conditions: heparin (high-salt) purification, 2 mM Mg2+

Sequence: TGTAGCGTCTGACGTGGTTCCCAC (double strand) [Aureo-box substrate DNA]
- binding result (dark, <2-fold difference from light): binds
- binding result (light, <2-fold difference from dark): binds
